Experimental data published in PubChem BioAssay AID248 (DTP/NCI, 2004).
The list shows only some results of the screen, not a fair sample: it is rich in T/C values a quarter to a half above the control, in often repeated tests (any T/C) and in doses without a T/C. Further doses and runs are listed elsewhere. T/C gives the treated animals as a percentage of the vehicle group. Some doses have a count of surviving animals in place of a T/C: the source holds a T/C of zero for them, seemingly a mark for toxic or unscored doses. Some doses without a T/C left all or most animals alive at the check, yet need not have been tolerated: the source hardly ever lists a survival T/C far under the control, and the zero likely stands for such cases as well. Counts of survivors are from the toxicity check (mostly the fifth day) where no day follows; animals may have died later. Schedule codes are those of the source, taken here to give the interval after Q, in days (D) or hours (H), and the number of doses after X.

System: L1210 leukemia ip in BDF1 mice, survival T/C
Experiment: NCI In Vivo Anticancer Drug Screen. Data for tumor model L1210 Leukemia (intraperitoneal) in B6D2F1 (BDF1) mice
Conditions: T/C endpoint: mean survival time, higher T/C = longer survival
[1] = dose: 200.0 mg/kg/injection, schedule: Q04DX003 (ip), vehicle: Klucel (hydroxypropylcellulose) (HPC)
[2] = dose: 400.0 mg/kg/injection, schedule: Q04DX003 (ip), vehicle: Klucel (hydroxypropylcellulose) (HPC)
[3] = dose: 200.0 mg/kg/injection, schedule: Q01DX009 (ip), vehicle: Klucel (hydroxypropylcellulose) (HPC)
[4] = dose: 400.0 mg/kg/injection, schedule: Q01DX009 (ip), vehicle: Klucel (hydroxypropylcellulose) (HPC)
[5] = dose: 300.0 mg/kg/injection, schedule: Q01DX001 (ip), vehicle: saline
[6] = dose: 400.0 mg/kg/injection, schedule: Q01DX001 (ip), vehicle: saline

How did the survivor count (dose: 10.0 mg/kg/injection, schedule: Q01DX001 (ip), vehicle: carboxymethylcellulose (CMC)) turn out when `C=C1C(=O)OC2CC3(C)OC3C3OC3C3=CC(OC3=O)C12` (stereo not drawn) was run?
Its survivor count is 1 of 4.

What about the survivor count (dose: 20.0 mg/kg/injection, schedule: Q01DX001 (ip), vehicle: carboxymethylcellulose (CMC)) of the same molecule?
The survivor count was 0 of 4.

And the survivor count (dose: 40.0 mg/kg/injection, schedule: Q01DX001 (ip), vehicle: carboxymethylcellulose (CMC))?
The survivor count was 0 of 4.

And the survivor count (dose: 50.0 mg/kg/injection, schedule: Q01DX001 (ip), vehicle: carboxymethylcellulose (CMC))?
The survivor count was 0 of 4.

And the survivor count (dose: 80.0 mg/kg/injection, schedule: Q01DX001 (ip), vehicle: carboxymethylcellulose (CMC))?
Its survivor count is 0 of 4.

What about the survivor count (dose: 100.0 mg/kg/injection, schedule: Q01DX001 (ip), vehicle: carboxymethylcellulose (CMC)) of the same molecule?
The survivor count was 0 of 4.

What about the survivor count (dose: 200.0 mg/kg/injection, schedule: Q01DX001 (ip), vehicle: carboxymethylcellulose (CMC)) of the same molecule?
The survivor count was 0 of 4.

And the survivor count (dose: 400.0 mg/kg/injection, schedule: Q01DX001 (ip), vehicle: carboxymethylcellulose (CMC))?
The survivor count was 0 of 4.

What does the source list for `[O-][n+]1onc2ncccc21`?
survivor count [1]: 1 of 6; survivor count [2]: 0 of 6

`N#Cc1cscc1C#N` was tested. Which survivor count [3] did it give?
Its survivor count is 2 of 6.

What about the survivor count [4] of the same molecule?
The survivor count was 0 of 6.

With `Cc1cccc(Cl)c1N=Nc1sc(N)nc1C` as the molecule, how does the survivor count [5] read?
Its survivor count is 0 of 6.

With `O=C(O)CNc1cc(S(=O)(=O)O)cc2cc(S(=O)(=O)O)c(N=Nc3cc(S(=O)(=O)O)cc4cc(S(=O)(=O)O)cc(O)c34)c(O)c12` as the molecule, how does the survivor count (dose: 400.0 mg/kg/injection, schedule: Q01DX001 (ip), vehicle: other) read?
The survivor count was 3 of 6.

What does the source list for `O=[N+]([O-])/C=C/c1ccc([N+](=O)[O-])o1`?
survivor count (dose: 25.0 mg/kg/injection, schedule: Q01DX001 (ip), vehicle: Klucel (hydroxypropylcellulose) (HPC)): 0 of 6; survivor count (dose: 50.0 mg/kg/injection, schedule: Q01DX001 (ip), vehicle: Klucel (hydroxypropylcellulose) (HPC)): 0 of 6

For `CC(=O)OI(OC(C)=O)c1cccc(C)c1`, which survivor count [4] is on record?
The survivor count was 1 of 6.

How did the survivor count (dose: 100.0 mg/kg/injection, schedule: Q01DX001 (ip), vehicle: saline) turn out when `CC(=O)OC(C(C)=O)C(C)=O.CC(=O)OC(C(C)=O)C(C)=O.[Cu]` was run?
The survivor count was 2 of 6.

What about the survivor count (dose: 200.0 mg/kg/injection, schedule: Q01DX001 (ip), vehicle: saline) of the same molecule?
Its survivor count is 6 of 6.

And the survivor count [6]?
Its survivor count is 6 of 6.

`O=C(c1ccccc1)C(c1ccccc1)C(O)(C(F)(F)F)C(F)(F)F` (stereo not drawn) was tested. Which survivor count (dose: 400.0 mg/kg/injection, schedule: Q01DX009 (ip), vehicle: saline with Tween-80) did it give?
The survivor count was 6 of 6.

`O=C(O)c1ccc2c([N+](=O)[O-])cccc2n1` was tested. Which survivor count [4] did it give?
Its survivor count is 6 of 6.

Which survivor count (dose: 3.13 mg/kg/injection, schedule: Q01DX009 (ip), vehicle: Klucel (hydroxypropylcellulose) (HPC)) does the source give for `OC[CH2][Hg][I]` here?
The survivor count was 6 of 6.

And the survivor count (dose: 12.5 mg/kg/injection, schedule: Q01DX009 (ip), vehicle: Klucel (hydroxypropylcellulose) (HPC))?
The survivor count was 2 of 6.

And the survivor count (dose: 25.0 mg/kg/injection, schedule: Q01DX009 (ip), vehicle: Klucel (hydroxypropylcellulose) (HPC))?
Its survivor count is 0 of 6.

What about the survivor count (dose: 50.0 mg/kg/injection, schedule: Q01DX009 (ip), vehicle: Klucel (hydroxypropylcellulose) (HPC)) of the same molecule?
The survivor count was 0 of 6.

What about the survivor count (dose: 100.0 mg/kg/injection, schedule: Q01DX009 (ip), vehicle: Klucel (hydroxypropylcellulose) (HPC)) of the same molecule?
The survivor count was 0 of 6.

What about the survivor count [3] of the same molecule?
The survivor count was 0 of 6.

And the survivor count [4]?
Its survivor count is 0 of 6.

How did the survivor count [6] turn out when `CCOC(=O)C1CCNC(=O)C1=O` (stereo not drawn) was run?
Its survivor count is 1 of 4.

What does the source list for `CC1CCc2ccccc2N1C1=NCCO1` (stereo not drawn)?
survivor count (dose: 75.0 mg/kg/injection, schedule: Q04DX003 (ip), vehicle: saline): 1 of 6; survivor count (dose: 150.0 mg/kg/injection, schedule: Q01DX001 (ip), vehicle: saline): 0 of 6; survivor count [5]: 0 of 6

Which survivor count [5] does the source give for `CCN(CC)CCCNC(c1ccc(OC)c(OC)c1)C(Cl)(Cl)Cl` (stereo not drawn) here?
The survivor count was 1 of 6.

How did the survivor count (dose: 25.0 mg/kg/injection, schedule: Q04DX003 (ip), vehicle: Klucel (hydroxypropylcellulose) (HPC)) turn out when `[Cl][Hg][CH2]CC1CC=CCC1` (stereo not drawn) was run?
The survivor count was 4 of 6.

And the survivor count (dose: 100.0 mg/kg/injection, schedule: Q04DX003 (ip), vehicle: Klucel (hydroxypropylcellulose) (HPC))?
Its survivor count is 0 of 6.

And the survivor count [1]?
Its survivor count is 0 of 6.

And the survivor count [2]?
The survivor count was 0 of 6.
